Data from patent US20110229472A1 (Amgen, published 2011).
Results are given in words; binding and its absence hold for the method and conditions named. Some binding calls cover weakened binding; strength is not graded here.

T1: Recombinant human MPL (human, UniProt P40238 26-491, limits assumed)
T1 construct: also called hu-mpl; hu-MPL
T1 sequence (looked up): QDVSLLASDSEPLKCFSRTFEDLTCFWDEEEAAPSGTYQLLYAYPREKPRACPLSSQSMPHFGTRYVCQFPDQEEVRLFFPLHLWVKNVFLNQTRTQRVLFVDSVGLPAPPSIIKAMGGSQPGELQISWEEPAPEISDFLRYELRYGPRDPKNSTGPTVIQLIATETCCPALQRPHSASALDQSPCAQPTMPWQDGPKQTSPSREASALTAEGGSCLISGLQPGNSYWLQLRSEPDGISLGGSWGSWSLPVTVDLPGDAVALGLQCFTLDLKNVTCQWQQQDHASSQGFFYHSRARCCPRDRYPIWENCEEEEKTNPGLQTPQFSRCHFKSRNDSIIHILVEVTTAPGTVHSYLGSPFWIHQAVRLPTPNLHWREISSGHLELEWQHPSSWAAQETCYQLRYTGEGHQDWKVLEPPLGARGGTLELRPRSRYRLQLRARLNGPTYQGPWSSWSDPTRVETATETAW


Molecular target: T1, Recombinant human MPL
Assay: phage ELISA titration: phagemid particles displaying the peptide, 5-fold dilution series (cfu/ul), on plate-coated recombinant human MPL, HRP-anti-M13 detection, chemiluminescent readout (Example 1, sections 4B and 5)

Row | binding | Binder
1 | binds | QGCSSGGPTLREWLQCRRMQHS [TMP22 (22-residue capped peptide)]
2 | binds | QGCSWGGPTLKQWLQCVRAKHS [TMP23 (22-residue capped peptide)]
